# Source: patent publication US11220528B2, “Compositions and methods for treating pulmonary hypertension” (Marshall University Research Corporation, priority 2017, dated 2022)
# How the values were obtained:
# HxSu rats [1] = test: Echocardiographic assessment (PAAT, RV wall thickness) in rat model of Sugen5416/Hypoxia (HxSu)-induced PAH; type: in vivo
# Protocol: (§1) Rat model of Sugen5416/Hypoxia (HxSu)-induced PAH and pNaktide treatment. Adult male Sprague-Dawley rats, aged 8 weeks, weighing 300-330 g, were injected subcutaneously with Sugen 5416 weekly, and housed in a hypoxic chamber for up to 4 weeks, as described previously. Animals received pNaKtide or vehicle (normal saline) treatment via intraperitoneal injection at a dose of 1, 10 and 25 mg/kg weekly.
# Echocardiographic Assessment. At 4 weeks, transthoracic echocardiography was performed by ultrasound on 2% isoflourane-anesthetized rats. Right ventricular wall thickness, pulmonary artery acceleration time (PAAT), cardiac output (CO) and HR were obtained as described.
# HxSu rats [2] = test: Right ventricular hypertrophy measurement (Fulton index) in HxSu rats; type: in vivo, rat; conditions: HxSu rats treated with pNaKtide; HxSu 0.55±0.04, normoxic 0.20±0.01; dose not given
# Protocol: as §1
# Right ventricular hypertrophy measurements. After echocardiography, the rats were euthanized and their hearts were isolated, flushed with saline, and dissected to separate the right ventricle (RV) from the left ventricle (LV) plus the septum (S). The Fulton index, which is ratio of the RV weight to LV+S weight (RV/LV+S) was determined to provide a measure for the RV hypertrophy.
# HxSu rats [3] = test: Right ventricular systolic pressure measurement in HxSu rats; type: in vivo, rat; conditions: 25 mg/kg/week, HxSu 122.6±3.9, normoxia 18.7±0.3
# Protocol: as §1
# Right ventricular systolic pressure measurements. After echocardiography, the animals were anesthetized with Ketamine/Xylazine cocktail. The right external jugular vein was exposed and isolated from the surrounding connective tissue. A micromanometer catheter (Millar pressure catheter, 1.0 F) was inserted in to the vein and pushed forward into the right ventricle. The pressure trace was monitored in the software to verify the catheter location and identify the RV pressure. The pressure measurements were recorded for 2 mins. Pressure data was analyzed with LabChart Pro. 8.0.
# HxSu rats [4] = test: Lung histology and immunohistochemistry (vessel wall thickness, plexiform lesions) in HxSu rats; type: in vivo, rat
# Protocol: as §1
# Histology and Immunohistochemistry analysis. The lungs were harvested and processed as described. Briefly, the lungs were inflated with 10% formalin at 20 cm H2O pressure and fixed in 10% formalin overnight. The left lobe was blocked and embedded in paraffin. All sections were cut at 5 μm. Representative hematoxylin and eosin-stained (H&E) lung section through the hilum was coded and blindly evaluated for remodeling of pulmonary arteries in the range of 10-150 μm. The vessel wall thickness of each arteriole was measured using Image J and expressed as: 1) percentage of the vessel diameter by the formula (Ed-Id)/Ed×100, where Ed is external diameter and Id is internal diameter; 2) percentage of the vessel area by the formula (areaext-areaint)/areaext, where areaext and areaint are the areas within the external and internal boundaries of the medial wall, respectively. Between 10 and 20 measurements were made per animal, and the average was calculated. […]
# HxSu rats [5] = test: Picrosirius red stain of collagen deposition (lung vessels, right ventricle) in HxSu rats; type: in vivo, rat
# Protocol: as §1
# Picrosirius red stain and quantification. Picrosirius red (PSR) stain was performed in 5 μm paraffin sections as described previously. The sections were then serially imaged using an analyzer and polarizer oriented parallel and orthogonal to each other. Microscope conditions (lamp brightness, condenser opening, objective, zoom, exposure time, and gain parameters) were maintained throughout the imaging of all samples. A minimal threshold was set on appropriate control sections for each experiment in which only the light passing through the orthogonally oriented polarizers representing fibrous structures (i.e., excluding residual light from the black background) was included. The threshold was maintained for all images across all conditions within each experiment. The area of the transferred regions that was covered by the thresholded light was calculated and at least 10 sections/vessel per condition were averaged together (NIH ImageJ software).
# IL-6 mRNA = test: Quantitative RT-PCR of IL-6 mRNA in lungs of HxSu rats; type: in vivo, rat; conditions: 25 mg/kg/week
# Protocol: as §1
# Quantitative RT-PCR Analysis. Total RNA was purified from crushed whole lung using the Qiagen RNeasy mini kit according to the manufacturer's instructions (Qiagen, Crawley, UK). Five hundred nanograms of total RNA was transcribed to cDNA using QuantiTect Reverse Transcription (Qiagen). Quantitative real-time RT-PCR was performed with the Sequence Detection System ABI Prism 7700 (Applied Biosystems, Warrington, UK) using TaqMan Universal PCR Master Mix, No AmpErase UNG (Part No. 4324018) and the following gene expression assays: IL-6 (Forward: 5′-TTCTCTCCGCAAGAGACTTCC-3′ (SEQ ID NO: 6); Reverse: 5′-TGF GGG TGG TAT CCT CTG TGA-3′ (SEQ ID NO: 7)) and (3-actin (Forward: 5′-AGATCAAGATCATTGCTCCT-3′ (SEQ ID NO: 8); Reverse: 5′-ACGCAGCTCAGTAACAGTCC-3′ (SEQ ID NO: 9)). Samples were run in triplicate. Levels of gene expression in each sample were determined with the comparative Ct method.
# protein carbonylation = test: Protein carbonylation in lung homogenates of HxSu rats (Western blot); type: in vivo, rat; conditions: 25 mg/kg/week
# Protocol: as §1
# Assessment of protein carbonylation. Lung tissue homogenates were prepared with RIPA buffer. Equal amounts of total protein (15 μg) from each sample were denatured with 6% SDS (final concentration), derivatized with 1×DNPH (freshly diluted with distilled water from 10×DNPH stock solution, 100 mM in 100% trifluoroacetic acid) to form DNP hydrazone derivatives, and then neutralized with neutralization buffer (30% of Glycerol in 2M Tris). This was followed by Western Blotting for protein carbonylation assay. Membrane Ponceau S staining was used for loading control of the protein carbonylation. To quantify the carbonylation level, optical signal densities of the protein bands from each lane were quantified. The signal density values of control samples were normalized to 1.0 with Ponceau S staining as loading control.
sequence,measurement,setting,value
GRKKRRQRRRPPQSATWLALSRIAGLCNRAVFQ (TAT NaKtide Fusion Polypeptide (pNaKtide)),RV thickness assessed by echocardiography,"HxSu rats [1]; HxSu rats treated with pNaKtide, HxSu 1.65±0.07, normoxic 1.12±0.03, dose not given",1.37±0.11 mm
same,pulmonary artery acceleration time (PAAT),"HxSu rats [1]; HxSu rats, 25 mg/kg/week intraperitoneal, at 4 weeks, vs HxSu group",significantly reverse in PAAT
same,Fulton index (RV/LV+S),HxSu rats [2],0.36±0.004
same,right ventricular systolic pressure (RVSP),HxSu rats [3],49.7±0.5 mmHg
same,medial wall thickening of pulmonary arterioles,"HxSu rats [4]; intraperitoneal injection, 1-25 mg/kg",dose-dependently reduced
same,number of plexiform lesions (PLs),"HxSu rats [4]; lowest dose 1 mg/kg/week, 20 random fields at 20x, HxSu 13.80±4.23",2.16±1.081
same,RV fibrosis (accumulation of collagen in right ventricle),HxSu rats [5]; HxSu rats treated with pNaKtide,normalized the fibrosis
same,collagen deposition in vessel media and adventitia and lung parenchyma (picrosirius red),"HxSu rats [5]; HxSu rats, 25 mg/kg/week, compared with HxSu group",attenuated the collagen deposition
same,decrease of IL-6 mRNA levels in the lungs compared with HxSu group,IL-6 mRNA,40%
same,protein carbonylation in lung homogenates,protein carbonylation,reduced the carbonylation to normal level
